Data published in the supplement of paper PMC10849652.
Some of the results follow.

Amino acid sequences for entries named in this document (tags omitted). A change or cut given only in a name is not applied to a line headed by its entry.
UniProt Q7Z333: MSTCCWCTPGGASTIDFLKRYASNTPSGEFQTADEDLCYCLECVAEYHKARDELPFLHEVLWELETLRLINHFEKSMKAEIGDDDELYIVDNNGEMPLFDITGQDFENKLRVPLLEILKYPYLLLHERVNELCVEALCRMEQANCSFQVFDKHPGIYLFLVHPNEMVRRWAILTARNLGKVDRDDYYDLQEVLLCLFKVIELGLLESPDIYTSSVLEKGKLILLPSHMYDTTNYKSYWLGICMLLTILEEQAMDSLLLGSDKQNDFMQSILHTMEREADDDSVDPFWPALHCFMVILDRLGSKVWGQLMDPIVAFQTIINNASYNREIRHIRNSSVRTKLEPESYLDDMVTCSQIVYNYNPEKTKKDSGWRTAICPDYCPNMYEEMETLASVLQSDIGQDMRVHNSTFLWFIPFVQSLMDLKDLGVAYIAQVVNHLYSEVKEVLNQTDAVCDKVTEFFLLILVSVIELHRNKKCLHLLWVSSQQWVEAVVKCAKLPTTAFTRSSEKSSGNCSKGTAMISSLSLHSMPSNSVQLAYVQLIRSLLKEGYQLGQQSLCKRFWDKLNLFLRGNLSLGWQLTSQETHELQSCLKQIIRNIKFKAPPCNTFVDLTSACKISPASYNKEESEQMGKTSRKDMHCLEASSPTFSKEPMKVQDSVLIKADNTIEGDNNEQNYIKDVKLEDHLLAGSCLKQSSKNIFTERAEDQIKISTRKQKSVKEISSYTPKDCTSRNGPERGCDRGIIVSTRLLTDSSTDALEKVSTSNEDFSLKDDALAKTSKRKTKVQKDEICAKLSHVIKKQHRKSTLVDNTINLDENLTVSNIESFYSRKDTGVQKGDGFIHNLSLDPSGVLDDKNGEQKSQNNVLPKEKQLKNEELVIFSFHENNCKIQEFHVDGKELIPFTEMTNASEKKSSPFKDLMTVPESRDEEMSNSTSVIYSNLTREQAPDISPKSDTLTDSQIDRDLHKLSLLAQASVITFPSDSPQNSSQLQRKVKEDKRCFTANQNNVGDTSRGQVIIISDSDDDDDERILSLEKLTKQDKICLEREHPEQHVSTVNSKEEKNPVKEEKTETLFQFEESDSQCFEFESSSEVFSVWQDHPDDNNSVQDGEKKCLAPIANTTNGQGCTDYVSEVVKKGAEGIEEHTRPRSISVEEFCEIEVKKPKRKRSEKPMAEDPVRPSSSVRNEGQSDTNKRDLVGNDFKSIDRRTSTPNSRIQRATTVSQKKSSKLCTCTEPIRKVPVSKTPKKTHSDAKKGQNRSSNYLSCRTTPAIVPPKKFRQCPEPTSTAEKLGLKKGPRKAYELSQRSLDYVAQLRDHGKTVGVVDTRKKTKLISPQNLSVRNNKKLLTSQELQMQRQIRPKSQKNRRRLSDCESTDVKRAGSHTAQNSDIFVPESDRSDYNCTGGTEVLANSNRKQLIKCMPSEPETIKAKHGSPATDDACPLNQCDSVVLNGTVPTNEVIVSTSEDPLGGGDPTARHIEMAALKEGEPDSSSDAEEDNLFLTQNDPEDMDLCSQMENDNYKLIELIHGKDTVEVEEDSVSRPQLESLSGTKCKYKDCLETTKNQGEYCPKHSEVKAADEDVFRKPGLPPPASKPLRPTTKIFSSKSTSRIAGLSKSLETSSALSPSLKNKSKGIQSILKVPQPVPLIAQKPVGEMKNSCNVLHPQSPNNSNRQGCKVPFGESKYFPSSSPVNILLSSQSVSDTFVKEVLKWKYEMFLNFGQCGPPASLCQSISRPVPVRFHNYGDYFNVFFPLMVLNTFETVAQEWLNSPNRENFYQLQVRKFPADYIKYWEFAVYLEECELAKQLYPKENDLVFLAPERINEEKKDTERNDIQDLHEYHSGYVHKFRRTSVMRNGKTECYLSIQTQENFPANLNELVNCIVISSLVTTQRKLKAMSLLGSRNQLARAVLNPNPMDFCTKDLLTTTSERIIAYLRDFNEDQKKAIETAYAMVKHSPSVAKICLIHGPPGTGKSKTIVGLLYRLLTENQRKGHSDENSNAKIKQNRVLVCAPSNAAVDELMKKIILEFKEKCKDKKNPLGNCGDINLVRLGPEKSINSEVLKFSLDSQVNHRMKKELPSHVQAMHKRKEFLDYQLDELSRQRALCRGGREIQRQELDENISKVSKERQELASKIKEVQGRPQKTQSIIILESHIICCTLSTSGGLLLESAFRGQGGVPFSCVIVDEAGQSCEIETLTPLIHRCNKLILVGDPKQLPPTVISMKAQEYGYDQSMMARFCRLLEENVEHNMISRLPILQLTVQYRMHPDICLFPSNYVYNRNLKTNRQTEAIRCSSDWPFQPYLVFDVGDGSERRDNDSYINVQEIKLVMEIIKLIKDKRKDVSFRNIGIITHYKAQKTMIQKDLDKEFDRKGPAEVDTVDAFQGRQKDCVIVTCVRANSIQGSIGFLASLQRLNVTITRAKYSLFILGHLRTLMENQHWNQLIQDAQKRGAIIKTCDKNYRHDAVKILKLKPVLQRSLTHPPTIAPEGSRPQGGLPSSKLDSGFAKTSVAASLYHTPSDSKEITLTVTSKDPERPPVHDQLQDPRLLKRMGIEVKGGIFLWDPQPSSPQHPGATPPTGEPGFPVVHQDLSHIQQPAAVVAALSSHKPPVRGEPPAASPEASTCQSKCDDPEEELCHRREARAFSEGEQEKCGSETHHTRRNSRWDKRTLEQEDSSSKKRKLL
UniProt Q8TD22: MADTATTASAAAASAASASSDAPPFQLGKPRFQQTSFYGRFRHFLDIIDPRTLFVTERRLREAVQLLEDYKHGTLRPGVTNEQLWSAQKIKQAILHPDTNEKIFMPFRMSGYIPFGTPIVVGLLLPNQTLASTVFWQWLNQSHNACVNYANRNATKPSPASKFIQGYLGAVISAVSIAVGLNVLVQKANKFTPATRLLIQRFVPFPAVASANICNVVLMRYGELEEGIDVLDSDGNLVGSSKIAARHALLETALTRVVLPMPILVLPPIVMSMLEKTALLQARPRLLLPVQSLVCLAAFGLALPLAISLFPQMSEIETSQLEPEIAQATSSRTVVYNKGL
UniProt Q96BR1: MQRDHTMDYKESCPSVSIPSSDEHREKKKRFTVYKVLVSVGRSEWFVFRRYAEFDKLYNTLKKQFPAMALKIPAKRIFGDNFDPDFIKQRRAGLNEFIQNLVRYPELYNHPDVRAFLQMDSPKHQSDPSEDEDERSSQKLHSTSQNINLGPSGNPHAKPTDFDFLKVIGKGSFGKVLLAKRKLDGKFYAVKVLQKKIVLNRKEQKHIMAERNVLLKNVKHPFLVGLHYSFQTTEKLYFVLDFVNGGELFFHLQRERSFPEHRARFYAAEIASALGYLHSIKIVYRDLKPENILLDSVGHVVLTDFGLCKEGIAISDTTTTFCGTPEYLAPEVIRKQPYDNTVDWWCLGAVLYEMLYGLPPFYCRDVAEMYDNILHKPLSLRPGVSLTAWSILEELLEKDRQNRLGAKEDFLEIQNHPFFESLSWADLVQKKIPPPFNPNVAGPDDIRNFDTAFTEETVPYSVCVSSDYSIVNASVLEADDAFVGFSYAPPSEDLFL
UniProt Q01105, whole entry, looked up: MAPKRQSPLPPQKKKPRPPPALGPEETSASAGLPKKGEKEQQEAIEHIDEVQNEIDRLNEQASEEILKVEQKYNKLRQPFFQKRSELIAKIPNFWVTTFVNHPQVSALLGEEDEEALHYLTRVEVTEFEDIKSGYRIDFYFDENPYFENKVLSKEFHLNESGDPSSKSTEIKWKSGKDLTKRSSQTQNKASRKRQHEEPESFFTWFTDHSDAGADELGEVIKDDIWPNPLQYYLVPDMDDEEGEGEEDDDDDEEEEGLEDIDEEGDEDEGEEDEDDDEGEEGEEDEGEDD
UniProt Q96EP9: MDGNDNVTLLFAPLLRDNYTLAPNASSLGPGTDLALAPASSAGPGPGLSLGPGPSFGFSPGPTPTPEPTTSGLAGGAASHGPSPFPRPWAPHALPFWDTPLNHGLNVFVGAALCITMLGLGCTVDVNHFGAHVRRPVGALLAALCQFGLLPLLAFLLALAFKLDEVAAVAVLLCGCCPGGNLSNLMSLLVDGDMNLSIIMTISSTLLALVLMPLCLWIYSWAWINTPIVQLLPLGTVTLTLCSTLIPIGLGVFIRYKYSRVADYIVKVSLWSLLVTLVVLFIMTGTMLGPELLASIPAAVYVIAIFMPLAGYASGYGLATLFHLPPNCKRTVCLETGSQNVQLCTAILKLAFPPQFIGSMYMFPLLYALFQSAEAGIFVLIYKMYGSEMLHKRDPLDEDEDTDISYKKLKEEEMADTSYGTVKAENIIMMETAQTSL
UniProt O75635: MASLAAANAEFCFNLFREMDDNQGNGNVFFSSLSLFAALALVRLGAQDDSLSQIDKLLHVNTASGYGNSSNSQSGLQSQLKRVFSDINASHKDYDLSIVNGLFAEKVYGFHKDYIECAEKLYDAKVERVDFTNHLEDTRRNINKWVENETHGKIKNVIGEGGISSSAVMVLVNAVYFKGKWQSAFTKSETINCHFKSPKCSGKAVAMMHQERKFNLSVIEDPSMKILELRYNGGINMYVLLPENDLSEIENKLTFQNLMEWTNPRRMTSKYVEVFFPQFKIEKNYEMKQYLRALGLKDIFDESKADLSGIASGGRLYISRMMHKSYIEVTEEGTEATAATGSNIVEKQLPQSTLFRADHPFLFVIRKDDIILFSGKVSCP
UniProt Q9UPS6, whole entry, looked up: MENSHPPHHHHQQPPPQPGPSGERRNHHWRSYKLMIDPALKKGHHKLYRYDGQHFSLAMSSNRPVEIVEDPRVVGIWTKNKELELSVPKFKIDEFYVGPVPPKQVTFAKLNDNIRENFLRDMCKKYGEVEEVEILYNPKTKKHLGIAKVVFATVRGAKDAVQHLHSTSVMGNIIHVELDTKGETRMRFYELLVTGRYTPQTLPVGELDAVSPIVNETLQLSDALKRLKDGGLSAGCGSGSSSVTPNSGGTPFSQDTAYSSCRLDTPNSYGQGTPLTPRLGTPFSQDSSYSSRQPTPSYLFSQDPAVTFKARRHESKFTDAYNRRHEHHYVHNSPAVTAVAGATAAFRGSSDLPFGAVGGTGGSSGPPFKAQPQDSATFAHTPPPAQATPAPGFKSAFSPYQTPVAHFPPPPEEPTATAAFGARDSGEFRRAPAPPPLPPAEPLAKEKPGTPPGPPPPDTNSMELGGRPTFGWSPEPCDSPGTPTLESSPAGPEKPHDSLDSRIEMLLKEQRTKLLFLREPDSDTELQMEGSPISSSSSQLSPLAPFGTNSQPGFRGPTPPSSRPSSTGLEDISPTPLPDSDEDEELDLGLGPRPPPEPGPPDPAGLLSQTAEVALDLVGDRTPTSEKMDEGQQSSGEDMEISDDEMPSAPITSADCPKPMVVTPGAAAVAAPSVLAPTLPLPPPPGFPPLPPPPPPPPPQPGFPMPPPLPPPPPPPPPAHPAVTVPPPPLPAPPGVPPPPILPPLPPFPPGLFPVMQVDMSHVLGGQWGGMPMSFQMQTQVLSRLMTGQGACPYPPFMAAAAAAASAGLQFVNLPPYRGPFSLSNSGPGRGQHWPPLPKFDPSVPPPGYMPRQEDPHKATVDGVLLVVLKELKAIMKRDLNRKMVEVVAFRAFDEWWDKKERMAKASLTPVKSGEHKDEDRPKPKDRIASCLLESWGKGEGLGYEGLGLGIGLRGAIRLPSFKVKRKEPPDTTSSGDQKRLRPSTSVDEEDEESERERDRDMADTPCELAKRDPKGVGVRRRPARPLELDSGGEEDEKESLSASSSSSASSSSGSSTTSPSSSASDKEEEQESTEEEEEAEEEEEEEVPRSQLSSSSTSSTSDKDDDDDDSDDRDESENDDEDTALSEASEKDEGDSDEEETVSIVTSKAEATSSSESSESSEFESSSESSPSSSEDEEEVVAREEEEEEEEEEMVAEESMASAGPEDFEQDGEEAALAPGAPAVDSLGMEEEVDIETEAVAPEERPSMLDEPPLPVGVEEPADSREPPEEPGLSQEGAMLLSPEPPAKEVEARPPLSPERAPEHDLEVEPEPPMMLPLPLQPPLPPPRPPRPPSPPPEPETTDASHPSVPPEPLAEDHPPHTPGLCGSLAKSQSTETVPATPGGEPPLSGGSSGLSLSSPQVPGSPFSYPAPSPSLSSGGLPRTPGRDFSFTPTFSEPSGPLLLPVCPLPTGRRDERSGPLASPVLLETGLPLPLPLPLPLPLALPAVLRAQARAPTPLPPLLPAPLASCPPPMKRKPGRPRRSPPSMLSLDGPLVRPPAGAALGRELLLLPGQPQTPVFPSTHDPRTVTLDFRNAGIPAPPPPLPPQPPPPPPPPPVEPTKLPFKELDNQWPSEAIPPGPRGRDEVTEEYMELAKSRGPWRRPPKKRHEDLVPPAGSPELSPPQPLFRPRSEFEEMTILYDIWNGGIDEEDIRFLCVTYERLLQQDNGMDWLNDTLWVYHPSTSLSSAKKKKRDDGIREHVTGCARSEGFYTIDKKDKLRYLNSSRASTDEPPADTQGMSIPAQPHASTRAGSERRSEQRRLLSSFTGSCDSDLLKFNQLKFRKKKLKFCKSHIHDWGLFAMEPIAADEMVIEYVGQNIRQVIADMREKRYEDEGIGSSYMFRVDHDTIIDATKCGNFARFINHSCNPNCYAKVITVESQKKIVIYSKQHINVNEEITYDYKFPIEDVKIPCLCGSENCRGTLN

How the values were obtained:
Test in all cases: log2 fold change, soluble protein after heating vs DMSO (PISA); higher = thermal stabilisation; K562 lysate, 10 uM; active = over 0.2 and 3.5 SD of the protein, either way, in both replicates (recomputed)
[1] = compound: CC(C)(C)Cn1c(N)nc2ccc(-c3[nH]c(C(C)(C)C)nc3-c3ccc(F)cc3)nc21 [ralimetinib]
Procedure, shortened: (§1)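 Log-two fold change in thermal stability relative to solvent controls is reported from duplicates. For each sample, crude K562 extract from dounce-homogenised pellets in PBS pH 7.4 with 1 mM MgCl2, at 1 mg/mL protein, was treated with 10 μM compound for 30 min. Aliquots heated for 3 min across 48°C-58°C were pooled, brought to 0.5% NP-40 at 4°C and cleared at 21,000xg for 90 min. The supernatant was quantified by TMTpro 16plex LC-MS/MS with channel sums equalised.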

[2] = compound: CC(C)(O)CC(=O)NCCn1ccc2ncnc(Nc3ccc(Oc4cccc(C(F)(F)F)c4)c(Cl)c3)c21
Procedure, shortened: as §1

[3] = compound: CC1=C(C2=C(C=C1)C(=O)C3=CC=CC=C3N2CCCN)C
Procedure, shortened: as §1

[4] = compound: CC1=C(C=C(C=C1)NC(=O)C2=CC(=CC=C2)N(C)C)NC(=O)C3=CC=C(C=C3)O
Procedure, shortened: as §1

[5] = compound: CC(=O)c1cnc2ccc(-c3cc(Cl)c(O)c(Cl)c3)nc2c1N[C@H]1CC[C@H](CN(C)C)CC1
Procedure, shortened: as §1

[6] = compound: CC(C)C1=C2N=C(C=C(N2N=C1)NCC3=CC=CC=C3)NCCCCCCN
Procedure, shortened: as §1

[7] = compound: CC1=C(C(CC(=O)N1)C2=CC=C(C=C2)C(F)(F)F)C(=O)NC3=C(C=C4C(=C3)C=NN4)F
Procedure, shortened: as §1

[8] = compound: CC1=C(C=C(C=C1)NC(=O)C2=CC(=CC=C2)C(C)(C)C#N)NC3=CC4=C(C=C3)N=CN(C4=O)C
Procedure, shortened: as §1

[9] = compound: CC1=CC=C(C=C1)SC2=C3C=C(SC3=CN=C2)C(=O)N
Procedure, shortened: as §1

[10] = compound: C=CC(=O)N1CCC[C@@H](n2nc(-c3ccc(Oc4ccccc4)cc3)c3c(N)ncnc32)C1 [ibrutinib]
Procedure, shortened: as §1

Measured: log2 fold change

SERPINA1 (UniProt P01009)
inactive: [1] -0.07 | [2] 0.303 | [3] -0.057 | [4] 0.031

SFT2D3 (UniProt Q587I9)
inactive: [5] -0.082 | [1] -0.165 | [2] 0.113 | [6] 0.057 | [7] -0.01 | [3] -0.077 | [8] -0.002 | [4] -0.109 | [9] 0.038

SHARPIN (UniProt Q9H0F6)
inactive: [5] -0.109 | [1] 0.042 | [2] 0.002 | [6] 0.153 | [7] -0.07 | [3] -0.063 | [8] 0.001 | [4] 0.009 | [9] -0.138

SKIL (UniProt P12757)
inactive: [1] -0.096 | [2] -0.152 | [6] 0.046 | [4] 0.042

SLAIN2 (UniProt D6RIF6)
inactive: [1] -0.167 | [2] -0.353 | [8] 0.037 | [4] -0.015

SHLD1 (UniProt Q8IYI0)
inactive: [3] 0.125

SH2D1B (UniProt O14796)
inactive: [1] -0.021 | [2] 0.149 | [3] -0.114 | [8] 0.067 | [4] -0.002

SKOR2 (UniProt Q2VWA4)
inactive: [5] -0.084 | [1] -0.025 | [2] -0.196 | [6] -0.005 | [3] -0.023 | [8] 0.133 | [4] -0.058 | [9] -0.098

SETX isoform 4 (UniProt Q7Z333)
inactive: [5] -0.073 | [1] 0.074 | [2] -0.09 | [6] 0.045 | [7] -0.002 | [3] -0.008 | [8] -0.011 | [4] 0.019 | [9] -0.08

SERPINF2 (UniProt P08697)
inactive: [10] -0.098 | [8] 0.005

SIGIRR (UniProt Q6IA17)
inactive: [5] 0.072 | [9] -0.055

SFT2D1 (UniProt Q8WV19)
inactive: [3] -0.079 | [8] -0.145

SFXN5 (UniProt Q8TD22)
inactive: [5] -0.009 | [1] -0.027 | [2] -0.046 | [6] -0.146 | [7] 0.049 | [3] -0.066 | [8] -0.033 | [4] -0.037 | [9] -0.083

SLC12A7 (UniProt Q9Y666)
inactive: [5] -0.147 | [9] 0.037

SIK2 (UniProt Q9H0K1)
inactive: [1] 0.033 | [2] -0.039 | [7] 0.004 | [4] -0.141

SGMS1 (UniProt Q86VZ5)
inactive: [5] 0.003 | [1] -0.001 | [2] 0.007 | [6] 0.007 | [7] -0.02 | [3] 0.051 | [8] -0.082 | [4] 0.003 | [9] 0.057

SGK3 (UniProt Q96BR1)
inactive: [1] 0.091 | [2] -0.119 | [6] -0.255 | [3] -0.012 | [4] -0.163

SGSM3 isoform 2 (UniProt Q96HU1)
inactive: [5] -0.089 | [1] -0.046 | [2] -0.031 | [6] 0.05 | [7] 0.092 | [8] -0.009 | [4] 0.025 | [9] 0

SLC11A1, A0A0A0MTL3
inactive: [5] -0.119 | [7] -0.083 | [9] 0.097

SF1 (UniProt H7C0N4)
inactive: [5] -0.045 | [8] -0.078 | [9] 0.036

SINHCAF (UniProt Q9NP50)
inactive: [1] 0.047 | [2] -0.1 | [6] -0.007 | [7] 0.086 | [3] 0.094 | [8] 0.012 | [4] 0.022

SIK3 (UniProt Q9Y2K2)
inactive: [1] -0.1 | [2] 0.014 | [6] -0.053 | [7] -0.045 | [3] -0.07 | [8] -0.067 | [4] 0.087

SET isoform 3 (UniProt Q01105)
inactive: [3] -0.002

SLC12A6 isoform 2 (UniProt Q9UHW9)
inactive: [5] 0.016 | [1] -0.01 | [2] 0.017 | [6] -0.018 | [3] 0.027 | [8] 0.063 | [4] -0.006 | [9] 0.122

SLC10A4 (UniProt Q96EP9)
inactive: [5] -0.21 | [1] 0.032 | [2] 0.054 | [6] 0.044 | [3] -0.007 | [4] 0.124 | [9] 0.023

SKP2 (UniProt Q13309)
inactive: [5] -0.137 | [1] 0.137 | [2] 0.045 | [6] 0.058 | [7] -0.041 | [3] 0.023 | [8] -0.097 | [4] -0.015
active: [9] -0.576

SERPINH1 (UniProt E9PK86)
inactive: [7] -0.222

SIRT3 (UniProt Q9NTG7)
inactive: [5] 0.009 | [1] 0.105 | [2] -0.085 | [6] -0.044 | [3] 0.06 | [8] -0.047 | [4] 0.02 | [9] -0.062

SIN3B (UniProt O75182)
inactive: [7] 0.19 | [8] 1.04

Fetched one by one from the entries so far, three records:
SERPINF2 (UniProt P08697)
inactive: [10] -0.098 | [8] 0.005

SKOR2 (UniProt Q2VWA4)
inactive: [5] -0.084 | [1] -0.025 | [2] -0.196 | [6] -0.005 | [3] -0.023 | [8] 0.133 | [4] -0.058 | [9] -0.098

SF1 (UniProt H7C0N4)
inactive: [5] -0.045 | [8] -0.078 | [9] 0.036

Next part:

SIAH1 isoform 2 (UniProt Q8IUQ4)
inactive: [5] -0.005 | [1] -0.038 | [2] -0.021 | [6] 0.041 | [7] 0.09 | [8] -0.02 | [4] -0.055 | [9] -0.033

SLC16A3 (UniProt O15427)
inactive: [1] 0.204 | [2] -0.034 | [4] 0.183

SESTD1 (UniProt Q86VW0)
inactive: [1] 0.102 | [2] -0.109 | [8] -0.267 | [4] 0.054

SHMT1 (UniProt J3KRZ5)
inactive: [7] -0.339

SH2B3 (UniProt Q9UQQ2)
inactive: [6] 0.032 | [8] -0.11

SETD6 (UniProt Q8TBK2)
inactive: [1] -0.029 | [2] -0.253 | [6] -0.141 | [7] 0.051 | [3] -0.128 | [4] 0.103

SLC18B1 (UniProt Q6NT16)
inactive: [5] -0.017 | [1] -0.066 | [2] -0.061 | [6] -0.02 | [7] -0.136 | [8] 0.025 | [4] 0.044 | [9] 0.069

SERPINB7 (UniProt O75635)
inactive: [1] -0.161 | [2] 0.471 | [8] 0.523 | [4] 0.009

SHB (UniProt Q15464)
inactive: [5] -0.023 | [1] 0.023 | [2] -0.025 | [6] -0.009 | [3] -0.01 | [8] 0.023 | [4] -0.012 | [9] 0.05

SIMC1 (UniProt Q8NDZ2)
inactive: [10] -0.141 | [7] -0.072 | [8] 0.35

SETD1B (UniProt Q9UPS6)
inactive: [10] 0.075 | [3] -0.079 | [8] -0.005
